Source: PubChem BioAssay AID226 (DTP/NCI, 2004)
The list shows only some results of the screen, not a fair sample: it is rich in T/C values a quarter to a half above the control, in often repeated tests (any T/C) and in doses without a T/C. Further doses and runs are listed elsewhere. T/C: endpoint of the treated group in % of that of the vehicle group. Some entries give survivors of the animals treated and no T/C: the source holds a T/C of zero for them, seemingly a mark for toxic or unscored doses. Some survivor counts are full or nearly so, which does not show that the dose was tolerated: survival well below the control is almost never listed, so the zero probably covers shortened survival too. Counts of survivors are from the toxicity check (mostly the fifth day) where no day follows; animals may have died later. Schedule codes are those of the source, read here as Q, the interval in days (D) or hours (H), X, the number of doses. Some doses were run more than once; their values stand side by side, smallest first. Some schedules carry Z or #; the key to these is not given. For survival time, the PubChem record calls one and a half times the control and up active, and a quarter to a half above the control has no call in these data; cut-offs in other NCI protocols can differ. Some T/C values are followed by the survivors on the day toxicity was checked, most often the fifth; where none is given, no animal had died by that day. Brackets with × stand for listed records that agree.

Test system: B6C3F1 mice, intracerebral ependymoblastoma, median survival T/C
Experiment: NCI In Vivo Anticancer Drug Screen. Data for tumor model Ependymoblastoma (intracerebral) in B6C3F1 mice
Conditions: T/C endpoint: median survival time, higher T/C = longer survival
Procedure: The antitumor activity of compounds was measured in mice bearing transplantable tumors. Survival or tumor size were measured and the results are expressed as the measurement made in the treated group (T) divided by the measurement made in the vehicle treated control group (C). The tumor model used in this assay is Ependymoblastoma (intracerebral) in B6C3F1 mice

[1] = dose: 64.0 mg/kg/injection, schedule: Q01DX001 (ip), vehicle: saline
[2] = dose: 16.0 mg/kg/injection, schedule: Q01DX005 (ip), vehicle: saline
[3] = dose: 200.0 mg/kg/injection, schedule: Q01DX005 (ip), vehicle: saline with Tween-80
[4] = dose: 1600.0 mg/kg/injection, schedule: Q01DX005 (ip), vehicle: saline
[5] = dose: 32.0 mg/kg/injection, schedule: Q01DX005 (ip), vehicle: saline with Tween-80
[6] = dose: 64.0 mg/kg/injection, schedule: Q01DX005 (ip), vehicle: saline with Tween-80

In the case of `Cc1ncc(CNC(=O)N(CCCl)N=O)c(N)n1`, the T/C (dose: 4.0 mg/kg/injection, schedule: Q01DX001 (ip), vehicle: saline) is reported as 101, 102, 107, 110 (2×), 114 % of control, the T/C (dose: 8.0 mg/kg/injection, schedule: Q01DX001 (ip), vehicle: saline) is reported as 101 (2×), 114, 116, 117, 128 % of control [9 of 10 alive] and the survivor count (dose: 12.5 mg/kg/injection, schedule: Q01DX009 (ip), vehicle: Klucel (hydroxypropylcellulose) (HPC)) is reported as 10 of 10. The T/C (dose: 16.0 mg/kg/injection, schedule: Q01DX001 (ip), vehicle: saline) was 113, 118, 121, 125, 130, 131 % of control [8 of 10 alive], the T/C (dose: 16.0 mg/kg/injection, schedule: Q01DX001 (ip), vehicle: water) was 148 % of control and the survivor count (dose: 25.0 mg/kg/injection, schedule: Q01DX009 (ip), vehicle: Klucel (hydroxypropylcellulose) (HPC)) was 10 of 10. For the same molecule, the T/C (dose: 32.0 mg/kg/injection, schedule: Q01DX001 (ip), vehicle: saline) was 175, 179, 181, 185, 230 [9 of 10 alive], 250 % of control, the survivor count (dose: 50.0 mg/kg/injection, schedule: Q01DX009 (ip), vehicle: Klucel (hydroxypropylcellulose) (HPC)) was 10 of 10 and the T/C [1] was 92, 165, 254, 300 % of control (2×). The survivor count [1] was 10 of 10, the survivor count (dose: 64.0 mg/kg/injection, schedule: Q01DX001 (ip), vehicle: water) was 9 of 10 and 10 of 10 and the survivor count (dose: 100.0 mg/kg/injection, schedule: Q01DX009 (ip), vehicle: Klucel (hydroxypropylcellulose) (HPC)) was 4 of 10. The survivor count (dose: 128.0 mg/kg/injection, schedule: Q01DX001 (ip), vehicle: saline) was 4 of 10 and 10 of 10, the survivor count (dose: 128.0 mg/kg/injection, schedule: Q01DX001 (ip), vehicle: water) was 8 of 10 and the survivor count (dose: 200.0 mg/kg/injection, schedule: Q01DX009 (ip), vehicle: Klucel (hydroxypropylcellulose) (HPC)) was 0 of 10. The survivor count (dose: 256.0 mg/kg/injection, schedule: Q01DX001 (ip), vehicle: saline) was 0 of 10 and 10 of 10, the survivor count (dose: 256.0 mg/kg/injection, schedule: Q01DX001 (ip), vehicle: water) was 2 of 10 and 4 of 10 and the survivor count (dose: 400.0 mg/kg/injection, schedule: Q01DX009 (ip), vehicle: Klucel (hydroxypropylcellulose) (HPC)) was 0 of 10.

For `CN(C)C(=O)N(CCCl)N=O`, the T/C (dose: 6.25 mg/kg/injection, schedule: Q01DX001 (ip), vehicle: water) was 125 % of control, the T/C (dose: 13.8 mg/kg/injection, schedule: Q01DX001 (ip), vehicle: DMSO) was 147 % of control and the survivor count (dose: 50.0 mg/kg/injection, schedule: Q01DX001 (ip), vehicle: water) was 7 of 10.

For `S=P(N1CC1)(N1CC1)N1CC1`, the T/C (dose: 1.0 mg/kg/injection, schedule: Q01DX005 (ip), vehicle: saline) was 140 % of control [9 of 10 alive], the T/C (dose: 2.0 mg/kg/injection, schedule: Q01DX005 (ip), vehicle: saline) was 142 % of control and the T/C (dose: 4.0 mg/kg/injection, schedule: Q01DX005 (ip), vehicle: saline) was 146 % of control. The survivor count [2] was 10 of 10.

For `CN=S(=O)(OCCCCCOS(=O)(=NC)c1ccccc1)c1ccccc1` (stereo not drawn), the survivor count [3] was 3 of 10.

In the case of `CN1c2c(nc(N)[nH]c2=O)NCC1CCNc1ccc(C(=O)NC(CCC(=O)O)C(=O)O)cc1` (stereo not drawn), the T/C (dose: 100.0 mg/kg/injection, schedule: Q01DX005 (ip), vehicle: saline) is reported as 99, 100, 104, 112 % of control, the T/C (dose: 200.0 mg/kg/injection, schedule: Q01DX005 (ip), vehicle: saline) is reported as 93, 106, 109, 110 % of control [9 of 10 alive] and the T/C (dose: 200.0 mg/kg/injection, schedule: Q12HX018 (ip), vehicle: saline) is reported as 127 % of control. The T/C (dose: 400.0 mg/kg/injection, schedule: Q01DX005 (ip), vehicle: saline) was 110, 115, 116, 117 % of control, the survivor count (dose: 400.0 mg/kg/injection, schedule: Q01DX009 (ip), vehicle: saline) was 8 of 10 and the survivor count (dose: 400.0 mg/kg/injection, schedule: Q12HX018 (ip), vehicle: saline) was 10 of 10. The survivor count (dose: 400.0 mg/kg/injection, schedule: Q#ADX018 (ip), vehicle: saline) was 9 of 10, the T/C (dose: 800.0 mg/kg/injection, schedule: Q01DX005 (ip), vehicle: saline) was 107, 107 [9 of 10 alive], 109 [9 of 10 alive], 116 % of control and the survivor count (dose: 800.0 mg/kg/injection, schedule: Q12HX018 (ip), vehicle: saline) was 10 of 10. For the same molecule, the survivor count (dose: 800.0 mg/kg/injection, schedule: Q#A X018 (ip), vehicle: saline) was 10 of 10, the survivor count (dose: 800.0 mg/kg/injection, schedule: Q#ADX018 (ip), vehicle: saline) was 10 of 10 and the T/C [4] was 107 [9 of 10 alive], 119, 135 % of control. The survivor count [4] was 9 of 10, the survivor count (dose: 1600.0 mg/kg/injection, schedule: Q01DX009 (ip), vehicle: saline) was 10 of 10 and the survivor count (dose: 1600.0 mg/kg/injection, schedule: Q12HX018 (ip), vehicle: saline) was 9 of 10. The survivor count (dose: 1600.0 mg/kg/injection, schedule: Q#A X018 (ip), vehicle: saline) was 10 of 10.

In the case of `CCOC(=O)C(CC(C)C)NC(=O)C(Cc1ccc(N(CCCl)CCCl)cc1)NC(C)=O` (stereo not drawn), the T/C [5] is reported as 130 % of control, the survivor count (dose: 64.0 mg/kg/injection, schedule: Q01DX005 (ip), vehicle: Klucel (hydroxypropylcellulose) (HPC)) is reported as 10 of 10 and the T/C [6] is reported as 134 % of control. The survivor count (dose: 128.0 mg/kg/injection, schedule: Q01DX005 (ip), vehicle: Klucel (hydroxypropylcellulose) (HPC)) was 5 of 10 and the survivor count (dose: 128.0 mg/kg/injection, schedule: Q01DX005 (ip), vehicle: saline with Tween-80) was 9 of 10 and 10 of 10.

With `CN(C)/N=N/c1[nH]ncc1C(N)=O` the T/C [2] was 134 % of control, the T/C [5] was 139 % of control and the T/C [6] was 142 % of control. For the same molecule, the survivor count (dose: 256.0 mg/kg/injection, schedule: Q01DX005 (ip), vehicle: saline with Tween-80) was 10 of 10 and the survivor count (dose: 512.0 mg/kg/injection, schedule: Q01DX005 (ip), vehicle: saline with Tween-80) was 9 of 10.

With `Nc1ccc(S(=O)(=O)c2ccc(N)cc2)cc1` the survivor count [3] was 4 of 10 and the survivor count (dose: 400.0 mg/kg/injection, schedule: Q01DX005 (ip), vehicle: saline with Tween-80) was 0 of 10.

In the case of `CCCCC(=O)OCC1OC(n2cnc3c(=S)nc[nH]c32)C(OC(=O)CCCC)C1OC(=O)CCCC` (stereo not drawn), the survivor count [3] is reported as 9 of 10.

In the case of `ClC(Cl)=C(Cl)Cl`, the survivor count (dose: 400.0 mg/kg/injection, schedule: Q01DX005 (ip), vehicle: other) is reported as 2 of 10.

For `O=NN(CCCl)C(=O)NC1CCCCC1`, the T/C (dose: 2.0 mg/kg/injection, schedule: Q01DX009 (ip), vehicle: Klucel (hydroxypropylcellulose) (HPC)) was 125 % of control, the T/C (dose: 3.0 mg/kg/injection, schedule: Q01DX009 (ip), vehicle: Klucel (hydroxypropylcellulose) (HPC)) was 141 % of control and the T/C (dose: 8.0 mg/kg/injection, schedule: Q01DX001 (ip), vehicle: saline + alcohol) was 128 % of control. For the same molecule, the T/C (dose: 16.0 mg/kg/injection, schedule: Q01DX001 (ip), vehicle: saline + alcohol) was 135 % of control, the survivor count (dose: 32.0 mg/kg/injection, schedule: Q01DX009 (ip), vehicle: Klucel (hydroxypropylcellulose) (HPC)) was 10 of 10 and the survivor count (dose: 64.0 mg/kg/injection, schedule: Q01DX009 (ip), vehicle: Klucel (hydroxypropylcellulose) (HPC)) was 8 of 10. The survivor count (dose: 75.7 mg/kg/injection, schedule: Q01DX001 (ip), vehicle: other) was 7 of 10 and the survivor count (dose: 256.0 mg/kg/injection, schedule: Q01DX001 (ip), vehicle: saline + alcohol) was 6 of 10.

In the case of `COc1cc(NS(C)(=O)=O)ccc1Nc1c2ccccc2nc2ccccc12`, the survivor count (dose: 8.0 mg/kg/injection, schedule: Q01DX005 (ip), vehicle: Klucel (hydroxypropylcellulose) (HPC)) is reported as 10 of 10, the survivor count (dose: 16.0 mg/kg/injection, schedule: Q01DX005 (ip), vehicle: Klucel (hydroxypropylcellulose) (HPC)) is reported as 10 of 10 and the survivor count [2] is reported as 8 of 10 and 10 of 10. For the same molecule, the survivor count (dose: 16.0 mg/kg/injection, schedule: Q01DX005 (ip), vehicle: water) was 10 of 10.
